Data reported in the supplement of paper PMC10849652.
This is one part of the list.

By UniProt entry, the sequences of proteins in these tests, tags left out. Where a name states a change or a piece, a line headed by the entry shows the natural chain unless it says otherwise.
UniProt Q96CW1: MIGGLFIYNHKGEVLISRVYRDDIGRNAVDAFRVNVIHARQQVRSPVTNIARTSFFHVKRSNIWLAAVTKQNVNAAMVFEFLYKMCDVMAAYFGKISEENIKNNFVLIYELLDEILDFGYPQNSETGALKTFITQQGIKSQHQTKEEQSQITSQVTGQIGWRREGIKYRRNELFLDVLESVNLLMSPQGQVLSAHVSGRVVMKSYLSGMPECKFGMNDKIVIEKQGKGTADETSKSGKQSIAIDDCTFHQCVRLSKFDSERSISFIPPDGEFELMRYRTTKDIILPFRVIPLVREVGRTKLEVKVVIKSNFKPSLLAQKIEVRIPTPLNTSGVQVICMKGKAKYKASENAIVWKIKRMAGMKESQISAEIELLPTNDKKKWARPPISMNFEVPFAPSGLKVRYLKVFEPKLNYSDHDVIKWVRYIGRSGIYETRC
UniProt Q8N392: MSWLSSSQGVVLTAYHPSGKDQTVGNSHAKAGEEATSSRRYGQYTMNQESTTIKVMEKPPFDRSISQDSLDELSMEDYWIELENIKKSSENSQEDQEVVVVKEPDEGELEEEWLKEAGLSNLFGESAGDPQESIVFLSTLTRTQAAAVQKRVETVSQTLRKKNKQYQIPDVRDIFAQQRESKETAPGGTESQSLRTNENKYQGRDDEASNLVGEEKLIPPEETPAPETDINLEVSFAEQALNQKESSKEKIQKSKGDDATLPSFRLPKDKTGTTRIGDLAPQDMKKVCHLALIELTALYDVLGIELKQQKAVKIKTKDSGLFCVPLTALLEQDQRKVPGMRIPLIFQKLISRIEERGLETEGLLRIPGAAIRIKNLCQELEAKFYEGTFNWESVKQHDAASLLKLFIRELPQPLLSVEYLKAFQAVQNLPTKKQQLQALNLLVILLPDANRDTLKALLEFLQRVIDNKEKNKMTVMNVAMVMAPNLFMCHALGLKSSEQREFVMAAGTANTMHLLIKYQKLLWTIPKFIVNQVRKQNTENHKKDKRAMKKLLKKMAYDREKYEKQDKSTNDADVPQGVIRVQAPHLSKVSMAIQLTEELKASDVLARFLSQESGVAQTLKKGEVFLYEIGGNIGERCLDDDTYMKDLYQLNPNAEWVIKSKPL
UniProt Q8IWW6: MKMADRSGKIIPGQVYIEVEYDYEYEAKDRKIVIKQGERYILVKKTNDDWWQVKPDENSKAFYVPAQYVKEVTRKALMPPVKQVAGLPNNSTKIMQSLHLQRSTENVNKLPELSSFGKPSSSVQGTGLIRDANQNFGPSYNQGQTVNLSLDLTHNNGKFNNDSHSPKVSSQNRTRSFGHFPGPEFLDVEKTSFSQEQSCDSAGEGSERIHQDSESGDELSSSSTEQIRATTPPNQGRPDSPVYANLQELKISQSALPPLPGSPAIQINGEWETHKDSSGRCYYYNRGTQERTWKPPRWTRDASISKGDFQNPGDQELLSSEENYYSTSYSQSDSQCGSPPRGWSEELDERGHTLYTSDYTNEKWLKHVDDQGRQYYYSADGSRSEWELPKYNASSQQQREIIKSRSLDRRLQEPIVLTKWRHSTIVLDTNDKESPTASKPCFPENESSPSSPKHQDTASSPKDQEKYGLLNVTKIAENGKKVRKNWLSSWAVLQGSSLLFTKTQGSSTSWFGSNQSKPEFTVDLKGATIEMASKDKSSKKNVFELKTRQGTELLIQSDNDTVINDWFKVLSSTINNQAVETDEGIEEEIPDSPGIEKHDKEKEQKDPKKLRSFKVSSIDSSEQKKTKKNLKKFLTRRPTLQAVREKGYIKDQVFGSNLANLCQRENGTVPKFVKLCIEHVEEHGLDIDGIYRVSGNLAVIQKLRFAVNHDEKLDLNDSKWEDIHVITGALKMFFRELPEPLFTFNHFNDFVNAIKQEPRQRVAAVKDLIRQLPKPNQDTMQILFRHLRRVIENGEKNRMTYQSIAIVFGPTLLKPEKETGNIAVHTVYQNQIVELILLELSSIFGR
UniProt Q8IWZ3: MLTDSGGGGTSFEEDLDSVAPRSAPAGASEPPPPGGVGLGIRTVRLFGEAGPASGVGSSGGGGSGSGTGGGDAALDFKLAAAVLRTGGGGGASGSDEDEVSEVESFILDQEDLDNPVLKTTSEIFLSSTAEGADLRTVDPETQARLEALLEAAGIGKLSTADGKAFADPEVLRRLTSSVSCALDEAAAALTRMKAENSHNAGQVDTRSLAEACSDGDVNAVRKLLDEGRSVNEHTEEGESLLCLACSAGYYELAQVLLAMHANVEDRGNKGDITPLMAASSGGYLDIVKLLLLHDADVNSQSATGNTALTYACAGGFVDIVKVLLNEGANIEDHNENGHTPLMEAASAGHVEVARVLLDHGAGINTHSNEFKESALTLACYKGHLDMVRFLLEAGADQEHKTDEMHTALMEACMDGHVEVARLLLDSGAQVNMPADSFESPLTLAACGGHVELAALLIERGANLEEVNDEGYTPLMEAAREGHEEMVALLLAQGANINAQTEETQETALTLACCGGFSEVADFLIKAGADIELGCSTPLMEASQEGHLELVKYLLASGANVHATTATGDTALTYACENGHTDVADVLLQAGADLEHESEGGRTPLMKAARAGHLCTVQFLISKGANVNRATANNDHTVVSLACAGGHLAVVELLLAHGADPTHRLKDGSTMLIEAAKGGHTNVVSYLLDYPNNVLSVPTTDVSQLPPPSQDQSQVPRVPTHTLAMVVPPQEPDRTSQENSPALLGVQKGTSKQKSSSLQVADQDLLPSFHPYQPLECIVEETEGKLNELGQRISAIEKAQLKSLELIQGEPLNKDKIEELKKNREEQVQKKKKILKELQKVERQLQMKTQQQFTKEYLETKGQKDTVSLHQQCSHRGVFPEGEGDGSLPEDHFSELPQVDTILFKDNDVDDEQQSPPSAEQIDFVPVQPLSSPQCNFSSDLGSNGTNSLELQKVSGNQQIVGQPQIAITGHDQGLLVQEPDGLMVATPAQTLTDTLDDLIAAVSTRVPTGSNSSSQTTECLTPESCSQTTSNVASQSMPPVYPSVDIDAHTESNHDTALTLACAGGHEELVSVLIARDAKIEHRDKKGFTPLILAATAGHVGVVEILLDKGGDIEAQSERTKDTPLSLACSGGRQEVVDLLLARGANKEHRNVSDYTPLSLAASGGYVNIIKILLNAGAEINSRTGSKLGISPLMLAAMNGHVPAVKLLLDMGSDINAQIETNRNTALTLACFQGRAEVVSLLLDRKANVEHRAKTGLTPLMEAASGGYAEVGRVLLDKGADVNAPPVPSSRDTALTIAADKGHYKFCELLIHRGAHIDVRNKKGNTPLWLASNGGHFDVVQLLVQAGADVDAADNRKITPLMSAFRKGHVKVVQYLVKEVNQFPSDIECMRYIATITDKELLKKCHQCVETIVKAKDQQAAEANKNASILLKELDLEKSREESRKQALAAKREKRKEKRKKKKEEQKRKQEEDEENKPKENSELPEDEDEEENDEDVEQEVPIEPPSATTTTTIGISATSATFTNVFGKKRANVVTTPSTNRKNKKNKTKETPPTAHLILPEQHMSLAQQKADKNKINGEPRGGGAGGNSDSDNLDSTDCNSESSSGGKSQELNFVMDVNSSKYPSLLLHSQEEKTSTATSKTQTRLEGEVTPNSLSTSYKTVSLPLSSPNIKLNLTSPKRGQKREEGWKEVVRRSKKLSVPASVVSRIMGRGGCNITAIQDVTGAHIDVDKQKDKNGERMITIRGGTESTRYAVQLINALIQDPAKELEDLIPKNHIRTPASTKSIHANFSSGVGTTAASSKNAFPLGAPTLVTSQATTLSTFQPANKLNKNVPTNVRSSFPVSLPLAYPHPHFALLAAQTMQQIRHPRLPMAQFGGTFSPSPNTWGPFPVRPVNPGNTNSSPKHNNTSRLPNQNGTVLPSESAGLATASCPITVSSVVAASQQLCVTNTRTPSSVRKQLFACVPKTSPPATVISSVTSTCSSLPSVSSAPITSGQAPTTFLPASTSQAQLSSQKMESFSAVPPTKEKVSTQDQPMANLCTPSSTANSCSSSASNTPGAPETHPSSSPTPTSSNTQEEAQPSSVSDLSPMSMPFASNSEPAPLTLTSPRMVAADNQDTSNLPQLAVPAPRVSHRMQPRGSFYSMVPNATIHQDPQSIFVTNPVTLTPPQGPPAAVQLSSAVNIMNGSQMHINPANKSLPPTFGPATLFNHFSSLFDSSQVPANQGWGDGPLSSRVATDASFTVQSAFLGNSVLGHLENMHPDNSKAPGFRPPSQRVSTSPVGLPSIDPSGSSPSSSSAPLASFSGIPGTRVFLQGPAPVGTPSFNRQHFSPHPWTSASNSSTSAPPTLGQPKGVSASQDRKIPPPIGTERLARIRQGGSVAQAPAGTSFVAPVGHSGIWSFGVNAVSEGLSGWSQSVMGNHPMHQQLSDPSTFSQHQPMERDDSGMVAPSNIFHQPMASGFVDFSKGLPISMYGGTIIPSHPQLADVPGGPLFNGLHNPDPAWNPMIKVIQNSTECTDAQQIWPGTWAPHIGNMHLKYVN
UniProt Q92572: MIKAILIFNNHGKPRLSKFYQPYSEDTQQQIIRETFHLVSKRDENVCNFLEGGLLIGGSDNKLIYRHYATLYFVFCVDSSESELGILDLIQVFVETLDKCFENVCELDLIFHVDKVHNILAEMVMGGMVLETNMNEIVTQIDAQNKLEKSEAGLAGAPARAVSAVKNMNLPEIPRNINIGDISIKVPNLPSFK
UniProt O00203: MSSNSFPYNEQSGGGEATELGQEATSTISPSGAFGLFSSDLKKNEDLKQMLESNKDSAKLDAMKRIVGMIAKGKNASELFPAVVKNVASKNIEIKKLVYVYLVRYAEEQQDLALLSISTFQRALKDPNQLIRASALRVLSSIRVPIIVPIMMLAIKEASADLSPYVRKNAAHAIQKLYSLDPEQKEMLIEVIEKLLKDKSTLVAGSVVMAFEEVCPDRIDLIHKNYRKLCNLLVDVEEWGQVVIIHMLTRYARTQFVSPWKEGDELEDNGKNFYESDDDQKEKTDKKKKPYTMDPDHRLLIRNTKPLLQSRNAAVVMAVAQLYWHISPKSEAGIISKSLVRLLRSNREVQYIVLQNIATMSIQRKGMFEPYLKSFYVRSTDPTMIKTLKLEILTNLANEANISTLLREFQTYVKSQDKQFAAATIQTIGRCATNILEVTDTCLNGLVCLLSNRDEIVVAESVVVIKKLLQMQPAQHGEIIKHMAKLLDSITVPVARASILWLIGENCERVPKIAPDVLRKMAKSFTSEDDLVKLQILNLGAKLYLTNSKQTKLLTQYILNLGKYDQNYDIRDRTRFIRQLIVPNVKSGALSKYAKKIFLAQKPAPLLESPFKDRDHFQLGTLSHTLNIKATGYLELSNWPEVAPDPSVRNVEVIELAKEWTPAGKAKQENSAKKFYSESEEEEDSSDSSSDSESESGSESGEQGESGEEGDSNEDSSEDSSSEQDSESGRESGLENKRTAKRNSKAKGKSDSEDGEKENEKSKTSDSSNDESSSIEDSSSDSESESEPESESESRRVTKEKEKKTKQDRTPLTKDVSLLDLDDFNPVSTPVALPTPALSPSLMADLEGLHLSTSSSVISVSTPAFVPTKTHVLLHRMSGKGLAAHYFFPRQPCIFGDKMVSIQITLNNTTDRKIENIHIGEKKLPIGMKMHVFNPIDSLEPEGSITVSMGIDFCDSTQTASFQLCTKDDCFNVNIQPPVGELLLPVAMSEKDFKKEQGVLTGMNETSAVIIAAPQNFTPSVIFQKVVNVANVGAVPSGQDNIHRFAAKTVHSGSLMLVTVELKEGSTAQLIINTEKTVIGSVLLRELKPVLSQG
UniProt Q9BXS5: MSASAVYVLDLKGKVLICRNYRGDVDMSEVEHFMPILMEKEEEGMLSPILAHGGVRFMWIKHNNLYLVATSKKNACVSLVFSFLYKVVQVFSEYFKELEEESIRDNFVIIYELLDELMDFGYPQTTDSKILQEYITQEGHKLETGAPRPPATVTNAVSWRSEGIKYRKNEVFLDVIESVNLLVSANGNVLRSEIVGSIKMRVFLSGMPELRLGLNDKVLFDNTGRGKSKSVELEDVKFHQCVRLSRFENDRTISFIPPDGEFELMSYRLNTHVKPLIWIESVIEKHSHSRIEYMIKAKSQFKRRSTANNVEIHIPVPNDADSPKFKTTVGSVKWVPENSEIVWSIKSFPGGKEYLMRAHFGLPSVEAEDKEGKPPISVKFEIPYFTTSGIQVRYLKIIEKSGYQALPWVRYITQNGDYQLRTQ
UniProt O95445: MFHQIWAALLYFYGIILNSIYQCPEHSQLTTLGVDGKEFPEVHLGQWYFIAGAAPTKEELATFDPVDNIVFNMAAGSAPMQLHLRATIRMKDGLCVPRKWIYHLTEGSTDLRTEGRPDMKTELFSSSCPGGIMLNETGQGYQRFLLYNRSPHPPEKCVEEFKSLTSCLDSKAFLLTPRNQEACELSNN
UniProt P02656: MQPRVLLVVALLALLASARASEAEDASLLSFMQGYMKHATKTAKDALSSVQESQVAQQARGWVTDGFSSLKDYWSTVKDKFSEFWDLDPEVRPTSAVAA

What was measured:
Test in all cases: log2 fold change, soluble protein after heating vs DMSO (PISA); higher = thermal stabilisation; K562 cells, 10 uM, 30 min; active = over 0.2 and 3.5 SD of the protein, either way, in both replicates (recomputed)
[1] = compound: CC[C@@H]1C(=O)N(C)c2cnc(Nc3ccc(C(=O)NC4CCN(C)CC4)cc3OC)nc2N1C1CCCC1
Outline: (§1)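 K562 cells at 2×10^6 cells/mL were treated for 30 min with 10 μM compound, and aliquots were heated for 3 min over 48°C-58°C before pooling. Extraction used PBS with 0.5% NP-40 at 4°C, and soluble protein was the supernatant after 21,000xg for 90 min, measured by TMTpro 16plex LC-MS/MS with channel sums equalised. Thermal stability values, relative to control samples and from duplicates, are log2 fold changes.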

volasertib = compound: CC[C@@H]1C(=O)N(C)c2cnc(Nc3ccc(C(=O)N[C@H]4CC[C@H](N5CCN(CC6CC6)CC5)CC4)cc3OC)nc2N1C(C)C [volasertib]
Outline: as §1

[2] = compound: CC[C@H](C)N1C=C(C2=C(C=C(C=C21)C3=CN=C(C=C3)N4CCNCC4)C(=O)NCC5=C(C=C(NC5=O)C)C)C
Outline: as §1

epoxomicin = compound: CC[C@H](C)[C@@H](C(=O)N[C@@H]([C@@H](C)O)C(=O)N[C@@H](CC(C)C)C(=O)[C@]1(CO1)C)NC(=O)[C@H]([C@@H](C)CC)N(C)C(=O)C [epoxomicin]
Outline: as §1

[3] = compound: CCn1cc(-c2ccnc3[nH]c(-c4cccc(CN(C)C)c4)cc23)c(-c2ccc(NC(=O)N(C)C)cc2)n1
Outline: as §1

[4] = compound: CN(C)CC(=O)Nc1ccc2[nH]c(=O)c3ccccc3c2c1
Outline: as §1

[5] = compound: CN1C2=C(C3=C1C(=O)N(N=C3)CC4=CC(=CC=C4)N)SC(=C2)S(=O)C
Outline: as §1

[6] = compound: CN1CCC(CNc2ccc3ncc(-c4cccc(OC(F)(F)F)c4)n3n2)CC1
Outline: as §1

saracatinib = compound: CN1CCN(CCOc2cc(OC3CCOCC3)c3c(Nc4c(Cl)ccc5c4OCO5)ncnc3c2)CC1 [saracatinib]
Outline: as §1

sotrastaurin = compound: CN1CCN(c2nc(C3=C(c4c[nH]c5ccccc45)C(=O)NC3=O)c3ccccc3n2)CC1 [sotrastaurin]
Outline: as §1

Tubastatin A = compound: CN1CCc2c(c3ccccc3n2Cc2ccc(C(=O)NO)cc2)C1 [Tubastatin A]
Outline: as §1

[7] = compound: CNC(=O)C1=CC=CC=C1NC2=NC(=NC=C2Cl)NC3=C(C=C(C=C3)N4CCOCC4)OC
Outline: as §1

defactinib = compound: CNC(=O)c1ccc(Nc2ncc(C(F)(F)F)c(NCc3nccnc3N(C)S(C)(=O)=O)n2)cc1 [defactinib]
Outline: as §1

rucaparib = compound: CNCc1ccc(-c2[nH]c3cc(F)cc4c3c2CCNC4=O)cc1 [rucaparib]
Outline: as §1

[8] = compound: CNc1nc(-c2ccc3c(N)n[nH]c3c2)cc(N2C[C@@H](C(=O)NC3CCCCC3)CC[C@H]2C)n1
Outline: as §1

encorafenib = compound: COC(=O)N[C@@H](C)CNc1nccc(-c2cn(C(C)C)nc2-c2cc(Cl)cc(NS(C)(=O)=O)c2F)n1 [encorafenib]
Outline: as §1

[9] = compound: COC(=O)[C@H](CCSC)NC(=O)C1=C(C=C(C=C1)NC[C@H](CS)N)C2=CC=CC=C2
Outline: as §1

[10] = compound: CCn1c(C(=O)N(C2CC2)C2CC2)cc2c3c(ncn3C)c(Nc3cc(C)n(C)n3)nc21
Outline: as §1

rosiglitazone = compound: CN(CCOC1=CC=C(C=C1)C[C@H]2C(=O)NC(=O)S2)C3=CC=CC=N3 (racemic) [rosiglitazone]
Outline: as §1

alvocidib = compound: CN1CC[C@H](c2c(O)cc(O)c3c(=O)cc(-c4ccccc4Cl)oc23)[C@H](O)C1 [alvocidib]
Outline: as §1

Measured: log2 fold change

ARGLU1 (UniProt Q9NWB6)
inactive: [1] 0.094 | volasertib -0.004 | [2] 0.033 | epoxomicin -0.106 | [3] 0.138 | [4] 0.003 | [5] 0.068 | [6] 0 | saracatinib 0.016 | sotrastaurin 0.091 | Tubastatin A 0.003 | [7] -0.365 | defactinib -0.04 | rucaparib -0.026 | [8] -0.028 | encorafenib -0.006 | [9] 0.077

ARIH1 (UniProt Q9Y4X5)
inactive: [1] -0.021 | volasertib -0.036 | [2] -0.018 | epoxomicin 0.032 | [10] 0.004 | [3] -0.025 | [4] -0.023 | rosiglitazone 0.003 | [5] -0.059 | [6] -0.03 | saracatinib 0.055 | sotrastaurin 0.058 | alvocidib 0.011 | Tubastatin A -0.039 | [7] 0.001 | defactinib 0.001 | rucaparib -0.023 | [8] -0.018 | encorafenib -0.007 | [9] 0.022

AP2M1 (UniProt Q96CW1)
inactive: [1] 0.072 | volasertib -0.041 | [2] 0 | epoxomicin 0.002 | [3] -0.006 | [4] -0.046 | [5] 0.023 | [6] 0.006 | saracatinib 0.032 | sotrastaurin 0.008 | Tubastatin A 0.002 | [7] 0.005 | defactinib 0.016 | rucaparib 0.026 | [8] 0.001 | encorafenib 0.008 | [9] -0.014

ARHGAP18 (UniProt Q8N392)
inactive: [1] -0.063 | volasertib -0.401 | [2] 0.071 | epoxomicin 0.03 | [10] -0.068 | [3] -0.022 | [4] 0.083 | rosiglitazone 0.025 | [5] 0.003 | [6] -0.089 | saracatinib -0.142 | sotrastaurin -0.062 | alvocidib -0.009 | Tubastatin A 0.106 | [7] 0.014 | defactinib -0.034 | rucaparib 0.087 | [8] 0.083 | encorafenib 0.122 | [9] -0.09

ARHGAP12 (UniProt Q8IWW6)
inactive: [1] 0.075 | volasertib -0.201 | [2] 0.098 | epoxomicin -0.043 | [10] -0.088 | [3] -0.073 | [4] -0.034 | rosiglitazone -0.025 | [5] -0.026 | [6] -0.063 | saracatinib -0.015 | sotrastaurin 0.047 | alvocidib 0.057 | Tubastatin A 0.176 | [7] 0.03 | defactinib 0.005 | rucaparib 0.133 | [8] 0.046 | encorafenib -0.061 | [9] 0.01

APPL1 (UniProt Q9UKG1)
active: volasertib -0.317
inactive: [1] -0.149 | [2] 0.058 | epoxomicin -0.044 | [3] -0.021 | [4] 0.02 | [5] -0.113 | [6] -0.065 | saracatinib 0.029 | sotrastaurin -0.004 | Tubastatin A 0.002 | [7] 0.027 | defactinib 0.037 | rucaparib -0.095 | [8] -0.03 | encorafenib 0.03 | [9] -0.029

ANKHD1 isoform 6 (UniProt Q8IWZ3)
inactive: [1] 0.086 | volasertib -0.513 | [2] 0.043 | epoxomicin -0.082 | [10] -0.073 | [3] 0.066 | [4] 0.018 | rosiglitazone 0.033 | [5] 0.205 | [6] -0.16 | saracatinib -0.023 | sotrastaurin -0.157 | alvocidib 0.035 | Tubastatin A 0.055 | [7] -0.018 | defactinib 0.013 | rucaparib 0.218 | [8] 0.082 | encorafenib 0.102 | [9] 0.006

AP3S1 (UniProt Q92572)
inactive: [1] 0.017 | volasertib -0.187 | [2] 0.055 | epoxomicin 0.022 | [10] -0.057 | [3] 0.01 | [4] 0.002 | rosiglitazone 0.037 | [5] 0.006 | [6] -0.05 | saracatinib -0.012 | sotrastaurin -0.022 | alvocidib -0.024 | Tubastatin A 0.056 | [7] -0.027 | defactinib 0.002 | rucaparib -0.011 | [8] 0.045 | encorafenib 0.055 | [9] -0.039

AP3B1 (UniProt O00203)
inactive: [1] -0.048 | volasertib -0.154 | [2] 0.088 | epoxomicin -0.006 | [10] -0.041 | [3] -0.026 | [4] 0.027 | rosiglitazone 0.035 | [5] 0.019 | [6] -0.086 | saracatinib -0.033 | sotrastaurin -0.039 | alvocidib -0.031 | Tubastatin A 0.102 | [7] -0.005 | defactinib -0.036 | rucaparib 0.058 | [8] 0.04 | encorafenib -0.002 | [9] 0.001

AP1AR (UniProt Q63HQ0)
inactive: [1] 0.011 | volasertib 0.027 | [2] 0.021 | epoxomicin 0.029 | [10] 0.059 | [3] -0.086 | [4] -0.023 | rosiglitazone -0.023 | [5] 0.078 | [6] 0.013 | saracatinib 0.003 | sotrastaurin 0.139 | alvocidib 0.03 | Tubastatin A -0.024 | [7] 0.127 | defactinib -0.072 | rucaparib 0.007 | [8] -0.041 | encorafenib -0.086 | [9] -0.002

ARHGAP1 (UniProt Q07960)
inactive: [1] 0.014 | volasertib -0.027 | [2] 0.021 | epoxomicin 0.013 | [3] -0.082 | [4] -0.007 | [5] -0.014 | [6] 0.19 | saracatinib -0.015 | sotrastaurin -0.03 | Tubastatin A 0.044 | [7] -0.032 | defactinib -0.046 | rucaparib 0.005 | [8] -0.019 | encorafenib 0.001 | [9] -0.014

AP2A1 (UniProt O95782)
inactive: [1] 0.076 | volasertib -0.085 | [2] 0.015 | epoxomicin -0.011 | [3] -0.002 | [4] -0.041 | [5] 0.005 | [6] 0 | saracatinib 0.049 | sotrastaurin 0.001 | Tubastatin A 0.001 | [7] 0.004 | defactinib 0.012 | rucaparib 0.01 | [8] -0.047 | encorafenib 0.032 | [9] -0.038

ANAPC16 (UniProt Q96DE5)
inactive: [1] 0.02 | volasertib 0.024 | [2] 0.011 | epoxomicin 0.13 | [10] 0.03 | [3] 0.042 | [4] -0.042 | rosiglitazone -0.022 | [5] -0.06 | [6] -0.058 | saracatinib 0.011 | sotrastaurin -0.028 | alvocidib -0.07 | Tubastatin A 0 | [7] 0.035 | defactinib 0.021 | rucaparib -0.011 | [8] 0.034 | encorafenib 0.021 | [9] 0.038

AP1M1 (UniProt Q9BXS5)
inactive: [1] -0.008 | volasertib -0.121 | [2] 0.013 | epoxomicin -0.034 | [10] -0.001 | [3] -0.004 | [4] 0.011 | rosiglitazone -0.004 | [5] -0.01 | [6] -0.034 | saracatinib 0.009 | sotrastaurin -0.029 | alvocidib -0.022 | Tubastatin A -0.004 | [7] -0.007 | defactinib -0.047 | rucaparib 0.006 | [8] 0.015 | encorafenib 0.043 | [9] -0.005

ARFGAP2 (UniProt Q8N6H7)
active: volasertib -0.257
inactive: [1] -0.052 | [2] 0.067 | epoxomicin 0.009 | [3] 0.023 | [4] 0.017 | [5] -0.015 | [6] -0.068 | saracatinib 0.037 | sotrastaurin -0.051 | Tubastatin A 0.03 | [7] 0.025 | defactinib -0.023 | rucaparib 0.017 | [8] 0.017 | encorafenib 0.05 | [9] -0.02

APOM (UniProt O95445)
inactive: [1] 0.083 | volasertib 0.22 | epoxomicin -0.193 | [10] 0.069 | [3] 0.031 | [4] -0.116 | rosiglitazone 0.181 | [5] 0.139 | [6] 0.038 | saracatinib 0.301 | sotrastaurin 0.177 | alvocidib 0.07 | Tubastatin A -0.181 | [7] 0.091 | defactinib -0.097 | rucaparib -0.181 | [8] -0.122 | encorafenib 0.06 | [9] 0.078

Two records drawn at random from those above, as already listed:
ARFGAP2 (UniProt Q8N6H7)
active: volasertib -0.257
inactive: [1] -0.052 | [2] 0.067 | epoxomicin 0.009 | [3] 0.023 | [4] 0.017 | [5] -0.015 | [6] -0.068 | saracatinib 0.037 | sotrastaurin -0.051 | Tubastatin A 0.03 | [7] 0.025 | defactinib -0.023 | rucaparib 0.017 | [8] 0.017 | encorafenib 0.05 | [9] -0.02

ARHGAP18 (UniProt Q8N392)
inactive: [1] -0.063 | volasertib -0.401 | [2] 0.071 | epoxomicin 0.03 | [10] -0.068 | [3] -0.022 | [4] 0.083 | rosiglitazone 0.025 | [5] 0.003 | [6] -0.089 | saracatinib -0.142 | sotrastaurin -0.062 | alvocidib -0.009 | Tubastatin A 0.106 | [7] 0.014 | defactinib -0.034 | rucaparib 0.087 | [8] 0.083 | encorafenib 0.122 | [9] -0.09

Following part.

APOC3 (UniProt P02656)
inactive: [1] 0.32 | volasertib 0.393 | [2] 0.258 | epoxomicin -0.553 | rosiglitazone -0.038 | [5] -0.007 | saracatinib -0.304 | sotrastaurin 0.207 | alvocidib -0.177 | Tubastatin A 0.018 | rucaparib -0.125 | [8] 0.171 | encorafenib -0.085
